Results published in the supplement of paper PMC12823440, “Inhibitors supercharge kinase turnover through native proteolytic circuits” (Nature, 2025).
The list shows a part of the results. Hit calls seldom repeat between salt and free forms of one compound.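 In K562 cells expressing nanoluciferase-fused kinases, luminescence was recorded at 4 h intervals between 2 and 18 h, normalized as percent of control with DMSO at 100% and a positive control at 0%. A significant (2 sigma) signal drop marks a time point as decreased. The authors' rule for a hit is not shown and takes in more than the number of time points.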

Chains of the proteins cited; added tags and fusions are not shown. Lines headed by an entry give the natural chain unless they say otherwise; changes in a name come on top.
UniProt P31152, whole entry: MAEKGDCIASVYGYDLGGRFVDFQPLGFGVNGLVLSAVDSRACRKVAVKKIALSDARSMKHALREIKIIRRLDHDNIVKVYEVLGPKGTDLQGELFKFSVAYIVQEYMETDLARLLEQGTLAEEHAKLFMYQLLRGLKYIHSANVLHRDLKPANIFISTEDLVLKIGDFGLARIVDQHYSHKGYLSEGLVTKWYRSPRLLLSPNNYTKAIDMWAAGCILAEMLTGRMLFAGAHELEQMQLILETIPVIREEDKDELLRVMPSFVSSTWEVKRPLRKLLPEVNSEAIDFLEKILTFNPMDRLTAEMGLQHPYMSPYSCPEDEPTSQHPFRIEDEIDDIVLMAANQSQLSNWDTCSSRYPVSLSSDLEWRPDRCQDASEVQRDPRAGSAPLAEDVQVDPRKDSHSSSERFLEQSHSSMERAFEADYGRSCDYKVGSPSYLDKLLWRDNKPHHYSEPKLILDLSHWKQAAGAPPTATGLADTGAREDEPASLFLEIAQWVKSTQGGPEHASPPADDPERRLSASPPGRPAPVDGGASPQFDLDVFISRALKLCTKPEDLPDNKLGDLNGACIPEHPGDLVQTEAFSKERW
UniProt Q16620, whole entry, looked up: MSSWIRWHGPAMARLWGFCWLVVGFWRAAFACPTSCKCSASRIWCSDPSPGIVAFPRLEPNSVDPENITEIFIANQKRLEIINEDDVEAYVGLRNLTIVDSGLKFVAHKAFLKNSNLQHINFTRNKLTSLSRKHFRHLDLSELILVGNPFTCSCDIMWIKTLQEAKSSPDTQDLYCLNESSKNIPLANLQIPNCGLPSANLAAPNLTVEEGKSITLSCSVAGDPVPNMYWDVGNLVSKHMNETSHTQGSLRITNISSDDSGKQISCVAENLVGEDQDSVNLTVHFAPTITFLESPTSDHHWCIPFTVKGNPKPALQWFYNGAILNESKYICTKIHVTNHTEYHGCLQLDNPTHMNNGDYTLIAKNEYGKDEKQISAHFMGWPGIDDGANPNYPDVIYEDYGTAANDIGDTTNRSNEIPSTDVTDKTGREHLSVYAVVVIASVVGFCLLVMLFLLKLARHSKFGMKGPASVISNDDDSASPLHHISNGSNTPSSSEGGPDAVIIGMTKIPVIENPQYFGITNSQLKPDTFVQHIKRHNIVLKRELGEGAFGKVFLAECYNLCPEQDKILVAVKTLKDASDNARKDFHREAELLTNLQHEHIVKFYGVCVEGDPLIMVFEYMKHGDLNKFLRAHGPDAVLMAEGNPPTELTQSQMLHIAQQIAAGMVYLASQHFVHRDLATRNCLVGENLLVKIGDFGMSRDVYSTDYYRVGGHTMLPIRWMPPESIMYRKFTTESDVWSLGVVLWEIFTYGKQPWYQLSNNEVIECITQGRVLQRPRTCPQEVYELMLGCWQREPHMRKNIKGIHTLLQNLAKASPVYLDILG
UniProt Q16288, whole entry, looked up: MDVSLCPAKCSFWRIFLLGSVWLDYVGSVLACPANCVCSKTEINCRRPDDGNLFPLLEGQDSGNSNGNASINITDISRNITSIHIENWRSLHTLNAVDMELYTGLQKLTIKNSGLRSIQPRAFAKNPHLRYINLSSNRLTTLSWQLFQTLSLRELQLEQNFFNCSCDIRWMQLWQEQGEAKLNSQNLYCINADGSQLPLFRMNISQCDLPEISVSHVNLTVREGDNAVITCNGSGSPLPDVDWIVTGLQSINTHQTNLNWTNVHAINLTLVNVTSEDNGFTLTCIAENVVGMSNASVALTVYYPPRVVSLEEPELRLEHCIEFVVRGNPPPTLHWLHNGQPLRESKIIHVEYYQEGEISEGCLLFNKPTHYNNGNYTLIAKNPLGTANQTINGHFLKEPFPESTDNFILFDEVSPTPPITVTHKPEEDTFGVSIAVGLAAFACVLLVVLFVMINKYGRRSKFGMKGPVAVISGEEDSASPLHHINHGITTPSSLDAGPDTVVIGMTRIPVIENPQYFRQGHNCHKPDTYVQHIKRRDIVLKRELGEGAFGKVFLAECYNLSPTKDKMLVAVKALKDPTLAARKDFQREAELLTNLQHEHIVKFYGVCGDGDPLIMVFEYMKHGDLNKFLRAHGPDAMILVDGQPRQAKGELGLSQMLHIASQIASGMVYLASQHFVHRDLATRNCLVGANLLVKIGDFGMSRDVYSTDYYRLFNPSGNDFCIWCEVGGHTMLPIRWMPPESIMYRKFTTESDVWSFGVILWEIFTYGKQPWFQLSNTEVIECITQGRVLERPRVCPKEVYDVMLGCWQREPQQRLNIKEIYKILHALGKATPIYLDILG
UniProt O96013: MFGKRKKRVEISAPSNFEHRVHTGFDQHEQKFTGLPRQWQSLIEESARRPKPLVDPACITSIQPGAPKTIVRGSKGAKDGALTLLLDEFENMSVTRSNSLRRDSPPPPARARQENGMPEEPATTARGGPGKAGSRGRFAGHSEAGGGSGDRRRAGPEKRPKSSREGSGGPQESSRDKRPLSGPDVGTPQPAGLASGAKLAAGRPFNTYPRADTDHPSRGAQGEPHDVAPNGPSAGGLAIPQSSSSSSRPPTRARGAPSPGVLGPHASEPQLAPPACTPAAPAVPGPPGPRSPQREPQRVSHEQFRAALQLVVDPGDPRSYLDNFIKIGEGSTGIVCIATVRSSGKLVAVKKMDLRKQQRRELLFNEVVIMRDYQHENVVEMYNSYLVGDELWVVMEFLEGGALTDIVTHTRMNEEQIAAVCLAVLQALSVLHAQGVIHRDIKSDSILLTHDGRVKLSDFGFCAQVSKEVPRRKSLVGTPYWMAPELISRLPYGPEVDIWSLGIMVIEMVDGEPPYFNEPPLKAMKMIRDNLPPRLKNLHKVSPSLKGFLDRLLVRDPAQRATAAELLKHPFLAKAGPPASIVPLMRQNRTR
UniProt Q96KB5: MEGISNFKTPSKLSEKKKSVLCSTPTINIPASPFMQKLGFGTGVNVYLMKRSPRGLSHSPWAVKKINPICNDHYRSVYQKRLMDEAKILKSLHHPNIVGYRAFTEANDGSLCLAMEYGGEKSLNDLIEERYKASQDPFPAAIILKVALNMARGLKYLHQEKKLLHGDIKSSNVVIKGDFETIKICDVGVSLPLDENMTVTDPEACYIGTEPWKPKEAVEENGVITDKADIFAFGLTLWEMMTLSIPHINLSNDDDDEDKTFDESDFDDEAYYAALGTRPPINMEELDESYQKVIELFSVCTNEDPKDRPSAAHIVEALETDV
UniProt O15530: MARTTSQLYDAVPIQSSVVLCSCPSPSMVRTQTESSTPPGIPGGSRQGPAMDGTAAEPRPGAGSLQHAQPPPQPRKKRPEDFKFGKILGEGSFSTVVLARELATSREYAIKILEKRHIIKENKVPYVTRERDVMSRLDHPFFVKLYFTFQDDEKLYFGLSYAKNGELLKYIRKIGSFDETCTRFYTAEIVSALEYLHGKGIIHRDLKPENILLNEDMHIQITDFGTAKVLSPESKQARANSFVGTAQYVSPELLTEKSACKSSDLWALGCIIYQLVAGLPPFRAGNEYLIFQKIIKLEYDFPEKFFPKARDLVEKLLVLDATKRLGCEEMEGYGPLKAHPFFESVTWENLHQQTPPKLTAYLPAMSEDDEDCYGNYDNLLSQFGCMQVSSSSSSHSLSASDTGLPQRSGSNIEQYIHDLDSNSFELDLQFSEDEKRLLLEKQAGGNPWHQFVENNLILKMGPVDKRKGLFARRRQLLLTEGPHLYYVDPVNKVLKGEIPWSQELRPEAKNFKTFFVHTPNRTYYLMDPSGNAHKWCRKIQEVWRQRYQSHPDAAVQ
UniProt Q9UBF8: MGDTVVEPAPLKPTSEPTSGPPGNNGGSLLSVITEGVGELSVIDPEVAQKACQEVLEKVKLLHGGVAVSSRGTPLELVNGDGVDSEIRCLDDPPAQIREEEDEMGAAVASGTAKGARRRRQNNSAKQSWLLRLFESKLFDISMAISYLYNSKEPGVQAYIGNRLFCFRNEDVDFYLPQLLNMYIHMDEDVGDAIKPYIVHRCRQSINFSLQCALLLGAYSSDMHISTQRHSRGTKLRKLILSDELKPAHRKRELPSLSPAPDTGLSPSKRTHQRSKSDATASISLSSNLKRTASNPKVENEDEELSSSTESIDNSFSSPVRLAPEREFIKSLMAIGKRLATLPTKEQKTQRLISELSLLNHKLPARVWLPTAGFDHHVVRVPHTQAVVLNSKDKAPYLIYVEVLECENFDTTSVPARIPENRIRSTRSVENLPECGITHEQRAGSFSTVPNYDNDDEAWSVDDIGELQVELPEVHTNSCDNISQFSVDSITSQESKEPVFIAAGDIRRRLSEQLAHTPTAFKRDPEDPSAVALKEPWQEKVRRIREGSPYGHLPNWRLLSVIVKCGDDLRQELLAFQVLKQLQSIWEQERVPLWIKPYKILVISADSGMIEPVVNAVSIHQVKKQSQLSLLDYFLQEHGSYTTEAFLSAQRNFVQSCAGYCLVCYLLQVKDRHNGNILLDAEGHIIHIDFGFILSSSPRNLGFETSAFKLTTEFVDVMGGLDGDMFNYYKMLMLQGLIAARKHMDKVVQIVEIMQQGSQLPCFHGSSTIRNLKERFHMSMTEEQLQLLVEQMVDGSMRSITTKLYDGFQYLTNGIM
UniProt Q05397, whole entry, looked up: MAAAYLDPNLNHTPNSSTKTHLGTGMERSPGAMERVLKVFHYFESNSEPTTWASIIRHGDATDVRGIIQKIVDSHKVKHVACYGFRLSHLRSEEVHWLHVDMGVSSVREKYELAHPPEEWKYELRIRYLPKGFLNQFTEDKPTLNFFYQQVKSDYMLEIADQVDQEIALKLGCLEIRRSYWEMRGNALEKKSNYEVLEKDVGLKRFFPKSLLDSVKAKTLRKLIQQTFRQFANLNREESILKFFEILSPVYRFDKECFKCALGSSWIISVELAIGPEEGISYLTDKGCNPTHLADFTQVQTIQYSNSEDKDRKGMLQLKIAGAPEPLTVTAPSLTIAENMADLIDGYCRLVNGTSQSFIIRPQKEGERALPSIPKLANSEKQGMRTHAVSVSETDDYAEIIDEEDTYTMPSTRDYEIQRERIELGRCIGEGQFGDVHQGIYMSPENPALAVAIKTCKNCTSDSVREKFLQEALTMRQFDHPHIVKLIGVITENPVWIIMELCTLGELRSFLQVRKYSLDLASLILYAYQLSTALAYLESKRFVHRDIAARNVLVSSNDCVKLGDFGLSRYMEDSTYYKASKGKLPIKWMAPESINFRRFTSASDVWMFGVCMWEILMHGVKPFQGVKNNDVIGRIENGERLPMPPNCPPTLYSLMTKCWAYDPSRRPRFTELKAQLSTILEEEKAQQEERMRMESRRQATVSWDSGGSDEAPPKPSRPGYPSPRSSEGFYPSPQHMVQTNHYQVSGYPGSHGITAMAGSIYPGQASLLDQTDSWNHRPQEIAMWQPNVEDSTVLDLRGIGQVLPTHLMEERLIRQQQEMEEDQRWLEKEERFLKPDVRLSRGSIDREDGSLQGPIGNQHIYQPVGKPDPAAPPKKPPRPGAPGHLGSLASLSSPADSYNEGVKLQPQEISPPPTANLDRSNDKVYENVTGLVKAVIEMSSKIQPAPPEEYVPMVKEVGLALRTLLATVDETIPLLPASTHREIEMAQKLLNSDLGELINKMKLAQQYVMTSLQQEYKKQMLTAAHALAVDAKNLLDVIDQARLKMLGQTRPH
UniProt Q14289, whole entry, looked up: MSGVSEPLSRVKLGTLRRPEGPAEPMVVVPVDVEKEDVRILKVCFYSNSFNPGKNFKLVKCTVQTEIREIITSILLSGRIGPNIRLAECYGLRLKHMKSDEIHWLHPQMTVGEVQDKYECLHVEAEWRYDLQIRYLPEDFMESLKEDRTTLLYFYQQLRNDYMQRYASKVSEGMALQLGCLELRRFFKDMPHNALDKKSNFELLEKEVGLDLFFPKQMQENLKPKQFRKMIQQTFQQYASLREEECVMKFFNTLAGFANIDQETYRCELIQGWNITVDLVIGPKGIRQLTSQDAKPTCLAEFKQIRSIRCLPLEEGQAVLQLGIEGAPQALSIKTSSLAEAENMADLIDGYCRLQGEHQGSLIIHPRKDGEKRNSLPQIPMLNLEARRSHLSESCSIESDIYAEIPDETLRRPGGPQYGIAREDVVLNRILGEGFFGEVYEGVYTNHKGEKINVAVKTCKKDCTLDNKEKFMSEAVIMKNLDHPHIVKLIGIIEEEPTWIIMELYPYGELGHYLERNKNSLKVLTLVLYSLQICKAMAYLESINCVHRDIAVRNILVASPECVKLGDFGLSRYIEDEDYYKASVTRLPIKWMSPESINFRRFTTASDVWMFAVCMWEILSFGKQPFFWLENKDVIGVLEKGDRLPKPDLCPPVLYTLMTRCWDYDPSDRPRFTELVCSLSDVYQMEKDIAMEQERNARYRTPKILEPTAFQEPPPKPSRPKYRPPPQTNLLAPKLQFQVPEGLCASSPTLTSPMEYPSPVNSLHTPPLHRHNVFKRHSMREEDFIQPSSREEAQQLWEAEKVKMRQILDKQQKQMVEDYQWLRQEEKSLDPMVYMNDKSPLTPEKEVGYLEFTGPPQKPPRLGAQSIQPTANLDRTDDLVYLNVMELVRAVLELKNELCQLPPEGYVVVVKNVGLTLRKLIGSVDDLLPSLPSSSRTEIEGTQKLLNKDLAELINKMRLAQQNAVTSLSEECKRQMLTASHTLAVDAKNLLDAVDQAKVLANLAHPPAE

Experiments:
Experiment in all cases: kinase-Nluc reporter destabilization hit call (1 = scored as downregulated) (binary); higher = compound decreases kinase abundance
Conditions in all cases: K562; 2-18 h
MAPK1 = MAPK1 (UniProt P28482)
MAPK4 = MAPK4 (UniProt P31152)
MAPKAPK2 = MAPKAPK2 (UniProt P49137)
MKNK1 = MKNK1 (UniProt Q9BUB5)
NTRK2 = NTRK2 (UniProt Q16620)
NTRK3 = NTRK3 (UniProt Q16288)
PAK4 = PAK4 (UniProt O96013)
PBK = PBK (UniProt Q96KB5)
PDGFRB = PDGFRB (UniProt P09619)
PDK1 = PDK1 (UniProt Q15118)
PDPK1 = PDPK1 (UniProt O15530)
PIK4CA = PIK4CA (UniProt P42356)
PIK4CB = PIK4CB (UniProt Q9UBF8)
PLK1 = PLK1 (UniProt P53350)
PRKAA1 = PRKAA1 (UniProt Q13131)
PRKCA = PRKCA (UniProt P17252)
PTK2 = PTK2 (UniProt Q05397)
PTK2B = PTK2B (UniProt Q14289)
RAF1 = RAF1 (UniProt P04049)
[1] = biological target: RAF1_S257L (clone: RAF1_mut) (UniProt P04049)

Measured: kinase-Nluc reporter destabilization hit call

O=C(NCc1cccc(O)c1)Nc1nc(-c2ccncc2)cs1 (10 µM)
inactive: MAPK1 = 0 | MAPK4 = 0 | MAPKAPK2 = 0 | MKNK1 = 0 | NTRK2 = 0 | NTRK3 = 0 | PAK4 = 0 | PBK 0 | PDGFRB 0 | PDK1 = 0 | PDPK1 = 0 | PIK4CA 0 | PIK4CB 0 | PLK1 = 0 | PRKAA1 = 0 | PRKCA 0 | PTK2 = 0 | PTK2B 0 | RAF1 = 0 | [1] 0

Cn1ncc2cc(-c3cnc(N)c(Cl)c3N3CCC4(CCNC4=O)CC3)ccc21 (10 µM)
inactive: MAPK1 = 0 | MAPK4 = 0 | MAPKAPK2 = 0 | MKNK1 = 0 | NTRK2 = 0 | NTRK3 = 0 | PAK4 = 0 | PBK 0 | PDGFRB 0 | PDK1 = 0 | PDPK1 = 0 | PIK4CA 0 | PIK4CB 0 | PLK1 = 0 | PRKAA1 = 0 | PRKCA 0 | PTK2 = 0 | PTK2B 0 | RAF1 = 0 | [1] 0

Cc1ccn2c(C(=O)C(=O)c3ccccc3)c(-c3ccccc3)nc2c1 (10 µM)
inactive: MAPK1 = 0 | MAPK4 = 0 | MAPKAPK2 = 0 | MKNK1 = 0 | NTRK2 = 0 | NTRK3 = 0 | PAK4 = 0 | PBK 0 | PDGFRB 0 | PDK1 = 0 | PDPK1 = 0 | PIK4CA 0 | PIK4CB 0 | PLK1 = 0 | PRKAA1 = 0 | PRKCA 0 | PTK2 = 0 | PTK2B 0 | RAF1 = 0 | [1] 0

N[C@@H](CCC(=O)O)C(=O)N[C@@H](Cc1c[nH]c2ccccc12)C(=O)O [Oglufanide] (10 µM)
inactive: MAPK1 = 0 | MAPK4 = 0 | MAPKAPK2 = 0 | MKNK1 = 0 | NTRK2 = 0 | NTRK3 = 0 | PAK4 = 0 | PBK 0 | PDGFRB 0 | PDK1 = 0 | PDPK1 = 0 | PIK4CA 0 | PIK4CB 0 | PLK1 = 0 | PRKAA1 = 0 | PRKCA 0 | PTK2 = 0 | PTK2B 0 | RAF1 = 0 | [1] 0

Cn1cc2cc(C(F)(F)c3nnc4ccc(-c5cnn(C6CC6)c5)nn34)c(F)cc2n1 [Bozitinib] (10 µM)
inactive: MAPK1 = 0 | MAPK4 = 0 | MAPKAPK2 = 0 | MKNK1 = 0 | NTRK2 = 0 | NTRK3 = 0 | PAK4 = 0 | PBK 0 | PDGFRB 0 | PDK1 = 0 | PDPK1 = 0 | PIK4CA 0 | PIK4CB 0 | PLK1 = 0 | PRKAA1 = 0 | PRKCA 0 | PTK2 = 0 | PTK2B 0 | RAF1 = 0 | [1] 0

CC(=O)N1CCC(c2cc(-c3ccc(NC(=O)c4cccn(-c5ccc(F)cc5)c4=O)cc3F)c3c(N)ncnn23)CC1 (0.5 µM)
inactive: MAPK1 = 0 | MAPK4 = 0 | MAPKAPK2 = 0 | MKNK1 = 0 | NTRK2 = 0 | NTRK3 = 0 | PAK4 = 0 | PBK 0 | PDGFRB 0 | PDK1 = 0 | PDPK1 = 0 | PIK4CA 0 | PIK4CB 0 | PLK1 = 0 | PRKAA1 = 0 | PRKCA 0 | PTK2 = 0 | PTK2B 0 | RAF1 = 0 | [1] 0

Nc1ncnc2c1c(-c1ccc(Oc3ccccc3)cc1)nn2C1CCN(CCOCCOCCOc2ccc3c(c2)CN(C2CCC(=O)NC2=O)C3=O)CC1 (stereo not given) (2.5 µM)
inactive: MAPK1 = 0 | MAPK4 = 0 | MAPKAPK2 = 0 | MKNK1 = 0 | NTRK2 = 0 | NTRK3 = 0 | PAK4 = 0 | PBK 0 | PDGFRB 0 | PDK1 = 0 | PDPK1 = 0 | PIK4CA 0 | PIK4CB 0 | PLK1 = 0 | PRKAA1 = 0 | PRKCA 0 | PTK2 = 0 | PTK2B 0 | RAF1 = 0 | [1] 0

Two neighbouring compounds out of the list so far, quoted:
N[C@@H](CCC(=O)O)C(=O)N[C@@H](Cc1c[nH]c2ccccc12)C(=O)O [Oglufanide] (10 µM)
inactive: MAPK1 = 0 | MAPK4 = 0 | MAPKAPK2 = 0 | MKNK1 = 0 | NTRK2 = 0 | NTRK3 = 0 | PAK4 = 0 | PBK 0 | PDGFRB 0 | PDK1 = 0 | PDPK1 = 0 | PIK4CA 0 | PIK4CB 0 | PLK1 = 0 | PRKAA1 = 0 | PRKCA 0 | PTK2 = 0 | PTK2B 0 | RAF1 = 0 | [1] 0

Cn1cc2cc(C(F)(F)c3nnc4ccc(-c5cnn(C6CC6)c5)nn34)c(F)cc2n1 [Bozitinib] (10 µM)
inactive: MAPK1 = 0 | MAPK4 = 0 | MAPKAPK2 = 0 | MKNK1 = 0 | NTRK2 = 0 | NTRK3 = 0 | PAK4 = 0 | PBK 0 | PDGFRB 0 | PDK1 = 0 | PDPK1 = 0 | PIK4CA 0 | PIK4CB 0 | PLK1 = 0 | PRKAA1 = 0 | PRKCA 0 | PTK2 = 0 | PTK2B 0 | RAF1 = 0 | [1] 0

Continuation:

Cc1ccc(NC(=O)c2ccnc(C(F)(F)F)c2)cc1-c1cc(OCCO)nc(N2CCOCC2)c1 (10 µM)
inactive: MAPK1 = 0 | MAPK4 = 0 | MAPKAPK2 = 0 | MKNK1 = 0 | NTRK2 = 0 | NTRK3 = 0 | PAK4 = 0 | PBK 0 | PDGFRB 0 | PDK1 = 0 | PDPK1 = 0 | PIK4CA 0 | PIK4CB 0 | PLK1 = 0 | PRKAA1 = 0 | PRKCA 0 | PTK2 = 0 | PTK2B 0 | RAF1 = 0 | [1] 0

C[C@@H]1COCCN1c1nc(-c2cnc(N)cc2C(F)F)nc(N2[C@H](C)COC[C@@H]2C)n1 (2.5 µM)
inactive: MAPK1 = 0 | MAPK4 = 0 | MAPKAPK2 = 0 | MKNK1 = 0 | NTRK2 = 0 | NTRK3 = 0 | PAK4 = 0 | PBK 0 | PDGFRB 0 | PDK1 = 0 | PDPK1 = 0 | PIK4CA 0 | PIK4CB 0 | PLK1 = 0 | PRKAA1 = 0 | PRKCA 0 | PTK2 = 0 | PTK2B 0 | RAF1 = 0 | [1] 0
